This test in a line: qHTS Assay for Lipid Storage Modulators in Drosophila S3 Cells.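 As to cell number change: cells counted by Cell Tracker Red CMTPX staining in the red channel.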 Particulars: BODIPY lipid droplet fluorescence, 18-24 h; for cell number change: measured here: cell count max response, cells fed with added oleic acid. Put shortly:
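Laser-scanning cytometry quantifies lipid droplet accumulation (500–530 nm total intensity; droplet/cell object ratio) in oleic acid-fed (400 uM added) Drosophila S3 cells treated with a concentration series. 20 uM Triacsin C defined 100% inhibition.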
(qHTS replaces the single test concentration by a dilution series.)

[1] abbreviates: measured here: lipid fluorescence (Fed channel) AC50, cells fed with added oleic acid.
The mark [2] stands for this setting: measured here: cell number channel AC50, cells fed with added oleic acid.

The other results are listed elsewhere or left out. These are further read-outs of the screen, such as a control signal, another cell line or another target. No call is given for them. The list favours compounds with an active or inconclusive main result. The note in brackets gives the kind of curve behind each potency; many fits are weak.

Results on 38 compounds are retold here after PubChem BioAssay AID2685 (National Center for Advancing Translational Sciences (NCATS), 2010).

In general, AC50 refers to the midpoint of the concentration-response curve, whichever way the signal moves. Low values mean activity at low concentration, high ones activity only at high concentration. As to `CC(OC(=O)c1cc2sccc2n1C)C(=O)NCCc1ccccc1` (configuration not stated), the cell number change was -3.5%. Moreover, under setting [1], the AC50 is 0.164 µM [rising, full curve, poor fit].

For `COc1c(C(=O)NC(=S)Nc2nnn(C)n2)cc2ccccc2c1Br`, the cell number change amounted to 51.9%. In addition, under setting [2], the AC50 was 1.46 µM [rising, partial curve]. Also, the AC50 under setting [1] is 5.8 µM [falling, single point].

On to `O=C(Cc1ccccc1)NCc1ccc(-n2cccc2)cc1`, for which the cell number change is -9.54%. `O=C(Nc1cccnc1Cl)c1ccc(=O)oc1`: the cell number change was -24.4%. For the same compound, the AC50 under setting [1] was 23.1 µM [falling, single point]. With `CCn1c(=O)c(CCC(=O)N2CCOCC2)c(C)c2c(C)nn(-c3ccccc3)c21`, under setting [2], the half-maximal activity concentration (AC50) is 6.51 µM [falling, single point]. Take `CSc1nc(C)c2c(n1)OC(CN1C(=O)c3ccccc3C1=O)C2` (configuration not stated): the cell number change was -39.4%. Besides, the AC50 under setting [2] was 8.2 µM [falling, partial curve].

As to `COc1ccc(-c2cc(=O)oc3c(O)c(O)ccc23)cc1`, the cell number change stood at 60.4%. Further, under setting [2], the AC50 is 6.51 µM [rising, partial curve]. Also, the concentration at half-maximal activity (AC50) under setting [1] was 3.66 µM [rising, full curve]. As for `CN(C)S(=O)(=O)c1cccc(C(=O)C2=C3SC=C(c4ccccc4)N3CC2)c1`, the cell number change was 8.51%. Under setting [1], the AC50 is 9.2 µM [rising, partial curve, poor fit].

Turning to `Cc1ccc(-c2cc(C)nc3ncnn23)cc1`, the cell number change is -18.9%. Moreover, the AC50 under setting [1] is 20.6 µM [falling, partial curve, poor fit]. In the case of `O=S(=O)(N/N=C\C=C\c1ccccc1)c1ccc(Cl)cc1`, the AC50 under setting [1] is 6.51 µM [falling, partial curve, poor fit]. Regarding `C=C1C(=O)[C@@]23[C@H](O)C[C@@H]4C(C)(C)CC[C@H](O)[C@]4(C)[C@@H]2C[C@H](O)[C@@H]1[C@H]3O`, the cell number change was -31.5%. Besides, the AC50 under setting [2] is 18.4 µM [falling, partial curve, poor fit]. Further, under setting [1], the half-maximal activity concentration (AC50) was 16.4 µM [falling, partial curve]. As for `O=C(Nc1ccc(Cl)cc1)c1cccnc1N1CCCCC1`, the cell number change amounted to 116%. Under setting [2], the AC50 was 5.8 µM [rising, partial curve]. The AC50 under setting [1] was 4.11 µM [rising, partial curve, poor fit]. Regarding `C=CCn1sc(N)c(C(=O)OCC)c1=S`, the cell number change stood at 2.84%. In the case of `COc1ccc2oc(=Nc3cccc(F)c3)c(C(N)=O)cc2c1`, the AC50 reads like this: under setting [2], 3.26 µM [rising, partial curve, poor fit]; under setting [1], 6.51 µM [rising, partial curve, poor fit]. Consider `Cc1nc2scc(C)n2c(=O)c1S(=O)(=O)Nc1ccc(F)cc1`, for which the cell number change is -3.17%. Also, the AC50 under setting [1] was 0.082 µM [rising, full curve, poor fit]. In the case of `O=c1oc(-c2ccccc2)cc(Cl)c1Cl`, the cell number change was -20.6%. The AC50 under setting [1] is 4.61 µM [falling, partial curve, poor fit]. In the case of `CCOC(=O)c1ccc(NC(=O)Cc2coc3cc4c(cc23)CCC4)cc1`, the cell number change is -11.7%. The AC50 under setting [1] is 2.06 µM [rising, partial curve]. For the compound `O=c1[nH]nc(-c2ccc(NCCCO)c([N+](=O)[O-])c2)c2ccccc12`, the cell number change was -6.73%. With `COc1ccc(-n2c(N)c(C(=O)NCc3ccco3)sc2=S)cc1`, the cell number change came out at 16.3%. For `COc1cc(OC)c(NS(=O)(=O)c2c(C)[nH]c(=O)[nH]c2=O)cc1Cl`, the cell number change turned out to be 30.3%. The AC50 under setting [2] was 29.1 µM [rising, partial curve, poor fit].

Regarding `Cc1ccc(S(=O)(=O)N2CCc3ccccc3C2)cc1`, the cell number change is -18.9%. For the same compound, the AC50 under setting [1] is 29.1 µM [falling, single point]. On to `COc1c(C)cc(Br)cc1C(=O)NC(=S)Nc1ccc(Cl)c(C(=O)O)c1`, for which the cell number change was -8.19%. The AC50 under setting [2] was 4.11 µM [falling, single point]. Further, under setting [1], the AC50 is 1.64 µM [falling, partial curve, poor fit]. `COC(=O)[C@@]12CCCN1[C@H](c1ccc(-c3cccc(Cl)c3)c(OC)c1)[C@H]1C(=O)N(C)C(=O)[C@H]12`: the cell number change was -5.81%. Further, the AC50 under setting [1] is 0.58 µM [falling, single point].

For `O=C(N/N=C/c1cccc2ccccc12)c1ccc(CN2CCOCC2)cc1`, the cell number change stood at 36.9%. For the compound `CC(C)NC(=O)NC(=O)CSc1ncccn1`, the cell number change was -38.5%. For the same compound, the AC50 under setting [2] was 4.11 µM [falling, full curve]. In the case of `O=[N+]([O-])c1ccc(N/N=C/c2cccc(O)c2O)c(S(=O)(=O)N2CCOCC2)c1`, the cell number change was -5.73%. In the case of `O=C1NCCN1Cc1ccccc1F`, the cell number change was 30.4%. Also, the AC50 under setting [2] was 0.92 µM [falling, partial curve]. Moreover, the AC50 under setting [1] was 1.46 µM [falling, partial curve]. With `Cc1ccc(CN(C(=O)N2CCN(C)CC2)S(=O)(=O)c2ccc(C)cc2)cc1`, the AC50 under setting [2] is 0.13 µM [rising, full curve, poor fit]. For `O=[N+]([O-])c1ccc(N/N=C/c2cn(-c3ccccc3)nc2-c2ccccc2)cc1`, the cell number change was 16.1%.

Regarding `O=C(Sc1nnc(-c2ccccc2)o1)N1c2ccccc2Sc2ccccc21`, the cell number change is -24.7%. The AC50 under setting [1] is 13 µM [falling, partial curve].

For `Cn1c(=NC(=O)c2ccco2)sc2ccccc21`, the cell number change is -0.637%. The AC50 under setting [2] was 6.51 µM [falling, single point]. For `CC(NC(=O)COC(=O)C1=NN(c2ccccc2)C(=O)CC1)c1ccccc1` (configuration not stated), the cell number change is -23.2%. Moreover, under setting [2], the AC50 is 0.731 µM [falling, full curve, poor fit]. As for `OCCN1CCN(CC(O)COc2ccc(-c3ccccc3)cc2)CC1` (configuration not stated), the cell number change is -36.4%. For the same compound, the AC50 under setting [2] was 29.1 µM [falling, single point]. Moreover, the AC50 under setting [1] is 0.651 µM [falling, full curve, poor fit].

With `COc1ccc(CN2C(=S)NC(C)(C)CC2(C)O)cc1` (configuration not stated), the cell number change is -42%. Further, the AC50 under setting [1] is 0.461 µM [falling, full curve, poor fit]. Regarding `Cn1c(CC(=O)Nc2ccccc2)nnc1SCC(=O)NC1=NCCS1`, the cell number change was 12.4%. The same measure, in the same setting: next, `O=S(=O)(c1ccccc1)c1ccc(N2CCCCCC2)cc1`: -10.9%. Take `CCOC(=O)C1CCCN(C(=O)COc2ccccc2O)C1` (configuration not stated): the cell number change was 32.4%. For the same compound, the AC50 under setting [2] was 9.2 µM [rising, partial curve]. Moreover, the AC50 under setting [1] is 6.51 µM [rising, partial curve]. Take `CCc1ccc(N2C(=O)CN(Cc3ccc(OC)c(OC)c3)C2=S)cc1`: the cell number change came to 2.65%. Moreover, the AC50 under setting [1] is 1.46 µM [rising, full curve, poor fit].
